Measurements reported in patent US20150005262A1, “HYPOXIA ACTIVATED PRODRUGS AND MTOR INHIBITORS FOR TREATING CANCER” (THRESHOLD PHARMACEUTICALS, INC., priority 2011, published 2015).
Some results were stated once for a whole list of compounds, not compound by compound.

Tested on: Caki-1 cells
Assay: Caki-1 RCC ectopic xenograft, TH-302 with temsirolimus
Assay type: in vivo, nude mice
Settings: Caki-1 model; temsirolimus 20 mg/kg QD×19 i.p.; TH-302 50 mg/kg i.p., TH-302 schedule not distinguished
Excerpt: In one combination therapy group, the temsirolimus and TH-302 administration both began on day 1; in the other combination therapy group, the TH-302 administration was initiated on day 8 after the first temsirolimus administration. Thus, two TH-302 monotherapy groups served as comparison groups (one group starting on day 1 and the other starting on day 8). […] The weight returned to normal when treatment stopped.

Cn1c(COP(=O)(NCCBr)NCCBr)cnc1[N+](=O)[O-] [TH-302]
tumor growth inhibition (TGI): under 90%
